In publication doi:10.1101/2021.12.31.471205:
The exact form of at least one protein or probe is not confirmed. Results from cells or extracts need not show a direct contact.

Chains of the proteins cited; added tags and fusions are not shown. Lines headed by an entry give the natural chain unless they say otherwise; changes in a name come on top.
UniProt P55771: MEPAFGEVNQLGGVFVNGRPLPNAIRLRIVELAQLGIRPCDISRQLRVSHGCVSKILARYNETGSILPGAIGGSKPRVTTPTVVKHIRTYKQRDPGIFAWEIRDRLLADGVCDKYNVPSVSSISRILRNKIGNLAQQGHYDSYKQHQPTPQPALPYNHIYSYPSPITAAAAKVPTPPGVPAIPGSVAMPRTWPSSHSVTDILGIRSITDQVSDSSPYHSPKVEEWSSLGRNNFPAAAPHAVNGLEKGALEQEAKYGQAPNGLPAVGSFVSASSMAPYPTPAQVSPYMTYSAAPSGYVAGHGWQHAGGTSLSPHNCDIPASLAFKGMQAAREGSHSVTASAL

Target: PAX9 wild type (Homo sapiens) (UniProt P55771)
Test: EMSA with anti-c-Myc supershift
Settings: 6 ug nuclear lysate; protein in an extract; residues 1-341

“CACCGCACGATTAGCACCGTTCCGCTCAGGCTGTCCCCC / CACGGGACAGCCTGAGCGGAACGGTGCTAATCGTGCGGT [e5 probe (39-mer)]”: binds.
